Source: the supplement of paper PMC10849652
The other results are listed elsewhere or left out.

The chains behind the UniProt entries cited, without tags or fusion partners. Where a name states a change or a piece, a line headed by the entry shows the natural chain unless it says otherwise.
UniProt P12980: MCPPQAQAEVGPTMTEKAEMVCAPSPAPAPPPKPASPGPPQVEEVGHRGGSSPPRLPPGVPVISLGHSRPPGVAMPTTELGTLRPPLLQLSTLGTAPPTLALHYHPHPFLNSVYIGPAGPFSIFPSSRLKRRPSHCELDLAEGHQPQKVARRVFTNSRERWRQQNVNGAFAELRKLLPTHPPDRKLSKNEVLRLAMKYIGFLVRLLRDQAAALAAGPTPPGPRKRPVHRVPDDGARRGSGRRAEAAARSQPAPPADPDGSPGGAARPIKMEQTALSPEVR
UniProt Q7L1W4: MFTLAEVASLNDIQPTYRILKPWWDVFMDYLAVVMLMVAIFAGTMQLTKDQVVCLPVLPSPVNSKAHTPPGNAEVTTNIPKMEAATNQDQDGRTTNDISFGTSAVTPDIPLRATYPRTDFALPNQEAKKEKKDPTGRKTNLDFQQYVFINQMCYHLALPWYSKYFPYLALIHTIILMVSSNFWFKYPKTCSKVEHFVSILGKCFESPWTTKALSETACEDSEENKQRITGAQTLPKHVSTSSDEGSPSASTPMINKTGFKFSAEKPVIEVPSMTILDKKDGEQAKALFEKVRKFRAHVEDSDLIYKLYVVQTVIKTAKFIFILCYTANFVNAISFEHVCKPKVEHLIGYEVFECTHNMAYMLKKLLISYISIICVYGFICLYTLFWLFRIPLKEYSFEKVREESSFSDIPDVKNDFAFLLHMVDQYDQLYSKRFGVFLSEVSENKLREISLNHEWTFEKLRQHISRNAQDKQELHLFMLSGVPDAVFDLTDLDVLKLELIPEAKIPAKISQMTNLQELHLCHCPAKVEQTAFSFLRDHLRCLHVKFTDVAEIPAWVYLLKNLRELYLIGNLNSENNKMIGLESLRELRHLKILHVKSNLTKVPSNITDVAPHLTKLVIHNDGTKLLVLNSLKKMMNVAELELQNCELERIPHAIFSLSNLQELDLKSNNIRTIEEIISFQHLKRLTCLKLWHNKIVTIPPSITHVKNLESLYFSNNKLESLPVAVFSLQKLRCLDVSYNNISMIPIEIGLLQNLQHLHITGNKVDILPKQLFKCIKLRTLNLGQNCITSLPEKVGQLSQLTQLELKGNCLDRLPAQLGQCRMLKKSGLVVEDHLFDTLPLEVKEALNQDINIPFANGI
UniProt Q8WXG6, whole entry, looked up: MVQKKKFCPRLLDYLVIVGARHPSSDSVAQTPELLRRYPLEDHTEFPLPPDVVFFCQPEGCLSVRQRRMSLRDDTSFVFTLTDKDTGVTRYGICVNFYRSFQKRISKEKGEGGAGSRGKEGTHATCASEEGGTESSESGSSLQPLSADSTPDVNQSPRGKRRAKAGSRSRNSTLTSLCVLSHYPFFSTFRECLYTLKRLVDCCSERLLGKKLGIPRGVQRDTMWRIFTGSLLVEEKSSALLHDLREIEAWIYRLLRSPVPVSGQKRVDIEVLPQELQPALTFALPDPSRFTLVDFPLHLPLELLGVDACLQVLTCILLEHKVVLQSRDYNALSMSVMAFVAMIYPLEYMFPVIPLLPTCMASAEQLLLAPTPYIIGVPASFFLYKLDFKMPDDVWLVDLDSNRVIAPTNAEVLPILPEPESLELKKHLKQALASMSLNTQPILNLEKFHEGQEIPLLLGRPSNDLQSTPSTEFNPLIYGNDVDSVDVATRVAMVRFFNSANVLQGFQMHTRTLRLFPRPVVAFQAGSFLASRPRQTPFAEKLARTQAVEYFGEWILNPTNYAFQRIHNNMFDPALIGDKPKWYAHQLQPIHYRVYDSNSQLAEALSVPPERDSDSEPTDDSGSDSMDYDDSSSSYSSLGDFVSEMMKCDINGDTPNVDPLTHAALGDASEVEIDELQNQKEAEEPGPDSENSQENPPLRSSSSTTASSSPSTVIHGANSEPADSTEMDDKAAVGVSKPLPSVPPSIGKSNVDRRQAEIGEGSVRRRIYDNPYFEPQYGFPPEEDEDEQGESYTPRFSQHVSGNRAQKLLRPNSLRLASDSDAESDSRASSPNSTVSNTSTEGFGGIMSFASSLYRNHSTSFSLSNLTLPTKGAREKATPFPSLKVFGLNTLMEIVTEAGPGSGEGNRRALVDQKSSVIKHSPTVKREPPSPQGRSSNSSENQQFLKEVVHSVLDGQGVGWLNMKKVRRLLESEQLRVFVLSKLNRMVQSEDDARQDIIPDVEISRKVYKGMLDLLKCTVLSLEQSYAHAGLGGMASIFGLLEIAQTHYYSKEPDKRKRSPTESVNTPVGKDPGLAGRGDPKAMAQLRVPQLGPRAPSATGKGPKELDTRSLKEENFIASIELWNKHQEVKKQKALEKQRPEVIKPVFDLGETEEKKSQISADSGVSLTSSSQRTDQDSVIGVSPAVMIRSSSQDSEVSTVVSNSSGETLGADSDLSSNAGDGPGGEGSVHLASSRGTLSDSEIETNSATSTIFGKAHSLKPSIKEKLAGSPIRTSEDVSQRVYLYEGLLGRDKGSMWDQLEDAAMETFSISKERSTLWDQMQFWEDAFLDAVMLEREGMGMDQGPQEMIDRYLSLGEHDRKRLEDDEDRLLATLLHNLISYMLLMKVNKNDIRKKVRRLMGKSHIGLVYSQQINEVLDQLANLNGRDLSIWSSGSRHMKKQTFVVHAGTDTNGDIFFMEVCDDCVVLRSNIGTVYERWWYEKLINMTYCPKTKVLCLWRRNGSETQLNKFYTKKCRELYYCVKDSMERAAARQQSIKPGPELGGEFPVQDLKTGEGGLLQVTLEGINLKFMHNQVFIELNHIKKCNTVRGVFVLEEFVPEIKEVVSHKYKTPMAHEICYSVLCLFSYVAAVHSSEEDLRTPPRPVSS
UniProt P10636, whole entry, looked up: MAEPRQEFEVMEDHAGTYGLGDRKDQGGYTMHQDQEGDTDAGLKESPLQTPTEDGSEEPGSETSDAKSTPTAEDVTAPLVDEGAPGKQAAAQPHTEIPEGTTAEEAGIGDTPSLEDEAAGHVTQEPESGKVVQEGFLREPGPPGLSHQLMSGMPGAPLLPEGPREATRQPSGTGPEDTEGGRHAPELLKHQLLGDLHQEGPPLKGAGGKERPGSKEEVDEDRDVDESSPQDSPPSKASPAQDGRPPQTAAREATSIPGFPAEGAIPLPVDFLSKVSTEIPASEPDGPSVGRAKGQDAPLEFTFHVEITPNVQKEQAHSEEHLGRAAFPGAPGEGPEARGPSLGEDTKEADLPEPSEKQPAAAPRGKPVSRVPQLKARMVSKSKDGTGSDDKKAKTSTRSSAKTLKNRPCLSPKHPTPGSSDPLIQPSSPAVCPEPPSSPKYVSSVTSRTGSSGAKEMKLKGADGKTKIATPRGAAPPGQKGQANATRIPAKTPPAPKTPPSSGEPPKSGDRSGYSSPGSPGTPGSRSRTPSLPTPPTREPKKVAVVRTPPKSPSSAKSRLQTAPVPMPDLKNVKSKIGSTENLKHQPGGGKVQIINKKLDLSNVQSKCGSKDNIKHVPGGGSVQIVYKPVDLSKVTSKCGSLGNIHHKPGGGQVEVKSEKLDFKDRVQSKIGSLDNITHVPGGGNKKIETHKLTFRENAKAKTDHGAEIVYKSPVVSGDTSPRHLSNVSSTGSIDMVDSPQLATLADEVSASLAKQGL
UniProt P51884: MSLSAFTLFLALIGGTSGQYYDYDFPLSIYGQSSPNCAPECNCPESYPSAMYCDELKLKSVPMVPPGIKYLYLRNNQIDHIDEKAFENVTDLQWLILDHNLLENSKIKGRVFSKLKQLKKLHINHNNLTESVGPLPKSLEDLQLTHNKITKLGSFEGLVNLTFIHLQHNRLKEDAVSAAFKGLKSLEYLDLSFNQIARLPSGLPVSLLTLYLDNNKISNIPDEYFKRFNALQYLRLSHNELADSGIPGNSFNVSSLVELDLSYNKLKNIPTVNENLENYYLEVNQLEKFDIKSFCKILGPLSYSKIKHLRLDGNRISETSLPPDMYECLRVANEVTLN

Legend:
Assay in all cases: log2 fold change, soluble protein after heating vs DMSO (PISA); higher = thermal stabilisation; K562 cells, 10 uM, 30 min; active = over 0.2 and 3.5 SD of the protein, either way, in both replicates (recomputed)
[1] = compound: NC(=O)Nc1cc(-c2cccc(F)c2)sc1C(=O)N[C@H]1CCCNC1
Procedure, shortened: (§1)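 K562 cells at 2×10^6 cells/mL were exposed to 10 μM compound for 30 min, then aliquots were heated for 3 min across 48°C-58°C, pooled, and extracted in PBS containing 0.5% NP-40 at 4°C. The supernatant after 21,000xg for 90 min was taken as soluble protein and measured by TMTpro 16plex LC-MS/MS with channel sums equalised. Thermal stability is reported relative to control samples, with values from duplicates. Fold changes are given on a log2 scale.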

[2] = compound: NC(=O)c1cnc(N[C@@H]2CCCC[C@@H]2N)nc1Nc1cccc(-n2nccn2)c1
Procedure, shortened: as §1

[3] = compound: NC1(c2ccc(-c3nc4ccn5c(=O)[nH]nc5c4cc3-c3ccccc3)cc2)CCC1
Procedure, shortened: as §1

[4] = compound: NCC(=O)Nc1ccc(-n2nc(C(F)(F)F)cc2-c2ccc3c(ccc4ccccc43)c2)cc1
Procedure, shortened: as §1

entinostat = compound: Nc1ccccc1NC(=O)c1ccc(CNC(=O)OCc2cccnc2)cc1 [entinostat]
Procedure, shortened: as §1

citarinostat = compound: O=C(CCCCCCNC(=O)c1cnc(N(c2ccccc2)c2ccccc2Cl)nc1)NO [citarinostat]
Procedure, shortened: as §1

silmitasertib = compound: O=C(O)c1ccc2c(c1)nc(Nc1cccc(Cl)c1)c1ccncc12 [silmitasertib]
Procedure, shortened: as §1

[5] = compound: O=C1NC(=O)C(c2cnc3ccccn23)=C1c1cn2c3c(cc(F)cc13)CN(C(=O)N1CCCCC1)CC2
Procedure, shortened: as §1

[6] = compound: c1cc(OCCN2CCCCC2)cc(-c2n[nH]c3ccc(-c4nnc[nH]4)cc23)c1
Procedure, shortened: as §1

Measured: log2 fold change

LYL1 (UniProt P12980)
inactive: [1] 0.143 | [2] -0.029 | [3] 0.007 | [4] 0.319 | entinostat -0.122 | citarinostat -0.257 | silmitasertib 0.092 | [5] -0.457 | [6] 0.106

LRRC8D (UniProt Q7L1W4)
inactive: [1] -0.032 | [2] 0 | [3] -0.07 | [4] -0.067 | entinostat 0.123 | citarinostat -0.06 | silmitasertib 0.038 | [5] 0.273 | [6] -0.239

MADD isoform 2 (UniProt Q8WXG6)
inactive: [1] -0.025 | [2] -0.055 | [3] -0.022 | entinostat -0.006 | citarinostat -0.004 | silmitasertib 0.211 | [5] 0.07 | [6] -0.112

MAPT isoform 9 (UniProt P10636)
inactive: [1] 0.167 | [2] -0.034 | [4] 0.037 | entinostat -0.226

LUM (UniProt P51884)
inactive: [1] -0.067 | [2] -0.108 | [4] -0.002 | entinostat -0.033 | citarinostat -0.042 | [5] 0.185 | [6] 0.47
